AC50 data for 54 compounds are collected here from PubChem BioAssay AID1487 (National Center for Advancing Translational Sciences (NCATS), 2009).

This test in a line: qHTS Assay for Modulators of Lamin A Splicing. The settings on record: HeLa LMNA splicing GFP/RFP minigene ratio, 48 h. The procedure, abridged: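 S3 HeLa cells stably expressing lamin A-EGFP splicing minigene plus DsRed2, 600 cells/well, 48 h compound exposure at 37C. Laser-scanning cytometry; analysed as GFP (500-530 nm)/RFP (575-640 nm) total intensity ratio; 0.5% DMSO vehicle.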

Where [1] appears, read: measured here: GFP splicing reporter channel.
Setting [2] is: measured here: RFP viability control channel.

SMILES strings stand for the structures. Some of the results follow. The main result of the screen is listed elsewhere. These columns were measured beside it and carry no call. Most of these compounds were active or inconclusive in the main read-out, so they are no random draw. The note in brackets gives the kind of curve behind each potency; many fits are weak.

On to `CCN1CCN(C(c2ccccc2Cl)c2sc3nc(-c4ccco4)nn3c2O)CC1` (stereo not given), for which the AC50 under setting [1] was 0.0224 µM [falling, full curve, poor fit].

For `Cc1cccc(CNc2ncncc2-c2ccc3c(c2)OCO3)c1`, under setting [2], the AC50 was 35.5 µM [rising, single point].

Regarding `O=C(Nc1nnc(-c2ccccc2Cl)o1)c1nc2ccccc2s1`, the half-maximal activity concentration (AC50) under setting [2] was 31.6 µM [rising, single point].

As to `CCCc1cc(=O)n2[nH]c(NCc3ccccc3Cl)nc2n1`, the half-maximal activity concentration (AC50) under setting [2] was 35.5 µM [falling, single point].

As to `CC(C)Oc1ccc(C(=O)NCC(c2ccc(N(C)C)cc2)N2CCc3ccccc32)cc1` (stereo not given), under setting [1], the half-maximal activity concentration (AC50) was 35.5 µM [falling, single point]. For `O=C(NCc1cccnc1)c1ccc([N+](=O)[O-])o1`, the AC50 is, setting by setting: under setting [1], 11.2 µM [falling, partial curve, poor fit]; under setting [2], 20 µM [falling, partial curve, poor fit].

Consider `CCN(c1ccccc1)S(=O)(=O)c1nnc(NC(=O)C2CCCCC2)s1`, for which the AC50 was 14.1 µM [falling, partial curve, poor fit] under setting [1] and 12.6 µM [falling, partial curve, poor fit] under setting [2]. Take `CC(C)(C)c1ccc(C(=O)c2c[nH]c(C(=O)NCc3ccco3)c2)cc1`: the AC50 is 35.5 µM [falling, single point] under setting [1] and 17.8 µM [falling, single point] under setting [2]. Consider `CNC(=S)N/N=C/c1cc(C)n(-c2ccc(Cl)c(Cl)c2)c1C`, for which the AC50 is 28.2 µM [rising, single point] under setting [1] and 35.5 µM [rising, partial curve] under setting [2]. On to `Cc1ccc(C)c(N2CCN(C(=O)c3ccc(Cn4c(=O)[nH]c5ccccc5c4=O)cc3)CC2)c1`, for which the AC50 under setting [1] is 11.2 µM [rising, partial curve, poor fit] and the AC50 under setting [2] is 15.8 µM [rising, single point]. On to `O=C(Nc1ccc(Br)cc1)c1cc(S(=O)(=O)NC2CCCC2)ccc1F`, for which the AC50 is 8.91 µM [falling, partial curve] under setting [1] and 11.2 µM [falling, partial curve, poor fit] under setting [2]. As to `O=C(Cn1nc2ccccc2n1)N/N=C/c1cc(Cl)cc([N+](=O)[O-])c1O`, the AC50 under setting [1] is 17.8 µM [falling, single point]. Take `C=CCn1c(SCC(=O)Nc2nc3ccccc3s2)nnc1-c1ccccc1O`: the concentration at half-maximal activity (AC50) under setting [2] is 35.5 µM [rising, single point]. Turning to `O=C(NNc1cccc(Cl)n1)Nc1cccc(C(F)(F)F)c1`, the AC50 was 11.2 µM [rising, single point] under setting [1] and 14.1 µM [rising, partial curve, poor fit] under setting [2].

For the compound `Cc1ccc(Cn2ncc3c(N4CCN(CC#N)CC4)ncnc32)cc1`, under setting [1], the AC50 was 12.6 µM [falling, single point]. As for `CCC(C)(C)n1nnnc1C(c1ccc2ncccc2c1)N1CCN(c2nc3ccccc3s2)CC1` (stereo not given), the AC50 under setting [2] is 8.91 µM [rising, partial curve].

On to `CNC(=S)N=Nc1c(O)[nH]c2ccccc12`, for which the AC50 was 14.1 µM [rising, single point] under setting [1] and 14.1 µM [rising, single point] under setting [2]. Take `O=C(Nc1cccc(O)c1)c1ccc(C(F)(F)F)cc1`: the AC50 under setting [1] is 1.12 µM [falling, partial curve, poor fit] and the AC50 under setting [2] was 0.794 µM [falling, partial curve]. On to `O=C(O)CSc1nc(-c2ccc(Cl)cc2)nc2c1oc1ccccc12`, for which the concentration at half-maximal activity (AC50) under setting [2] is 31.6 µM [rising, single point].

For the compound `Cc1ccc(-c2ccc(/C=C3\SC(N4CCOCC4)=NC3=O)o2)cc1`, the concentration at half-maximal activity (AC50) is, setting by setting: under setting [1], 0.447 µM [falling, full curve, poor fit]; under setting [2], 0.355 µM [falling, full curve, poor fit]. Take `CCOc1ccccc1NS(=O)(=O)c1ccc(N2CCCCS2(=O)=O)cc1`: the AC50 under setting [1] was 0.0794 µM [falling, full curve, poor fit]. `Fc1ccccc1CSc1ncnc2c1oc1ccccc12`: the concentration at half-maximal activity (AC50) under setting [2] is 22.4 µM [rising, single point]. On to `CC(C)CCCC(C)CCCC(C)CCCCC(C)CCCC(C)CCCC(C)C` (stereo not given), for which the AC50 under setting [2] is 31.6 µM [rising, single point].

For `CC(=O)Nc1ccc(NC(=O)/C=C/c2ccc3c(c2)OCO3)cc1`, the concentration at half-maximal activity (AC50) under setting [1] was 35.5 µM [rising, single point]. `O=C(CSc1ccccc1F)NC(=O)NCc1ccco1`: the AC50 was 20 µM [rising, single point] under setting [1] and 11.2 µM [rising, single point] under setting [2].

Consider `Cc1ccc(C)c(NC(=O)Cn2c(SCC(=O)NCc3ccccc3)nc3ccccc32)c1`, for which the AC50 under setting [1] was 0.708 µM [falling, full curve, poor fit]. Still for that read-out and setting: as for `O=c1[nH]c(SCC2CCCCO2)nc2ccccc12` (stereo not given), the figure is 11.2 µM [rising, single point]; as for `CCC(=O)N1CCc2cc(CNS(=O)(=O)c3ccc(CC(C)C)cc3)ccc21`, 0.631 µM [rising, full curve]. For `CC(C)(C)c1cc(NC(=O)c2ccc(OC3CCCC3)cc2)no1`, the AC50 is 31.6 µM [rising, single point] under setting [1] and 31.6 µM [rising, single point] under setting [2]. For `CC(=O)NC1C(Oc2ccc(C=O)cc2)OC(COC(C)=O)C(OC(C)=O)C1OC(C)=O` (stereo not given), the AC50 by setting is: under setting [1], 0.447 µM [falling, full curve, poor fit]; under setting [2], 0.282 µM [falling, full curve, poor fit]. For `CCN(CC)S(=O)(=O)c1ccc2[nH]cc(C(=O)NCCC3=CCCCC3)c(=O)c2c1`, the AC50 under setting [2] is 3.55 µM [rising, partial curve].

`O=C(NCCCCc1ccccc1)C1CC(c2ccc([N+](=O)[O-])cc2)=NO1` (stereo not given): the half-maximal activity concentration (AC50) was 15.8 µM [rising, single point] under setting [1] and 25.1 µM [rising, single point] under setting [2]. For the compound `Cn1cnc([N+](=O)[O-])c1S(=O)(=O)c1ccc(Cl)cc1`, the AC50 under setting [1] was 25.1 µM [falling, single point]. Regarding `CC1(C)N=C(SCC(=O)Nc2ccc(Cl)cc2Cl)C(c2ccccc2)=N1`, the AC50 under setting [2] is 17.8 µM [rising, single point]. Still for that read-out and setting: as for `C=CCn1c(CC(=O)OC)csc1=Nc1ccc(C(C)=O)cc1`, the figure is 35.5 µM [rising, single point]. On to `CC1CCCCC1NC(=O)/C(C#N)=C/C=C/c1ccccc1[N+](=O)[O-]` (stereo not given), for which the half-maximal activity concentration (AC50) under setting [1] is 8.91 µM [falling, partial curve, poor fit]. `COc1ccccc1CNC(=O)CN(c1ccc(C)cc1)S(=O)(=O)c1c(C)nn(C)c1C`: the AC50 is 1 µM [rising, full curve, poor fit] under setting [1] and 3.98 µM [rising, partial curve] under setting [2]. With `O=C1N=C(N2CCOCC2)S/C1=C/c1ccc(-c2ccc(F)cc2)o1`, the AC50 under setting [2] was 12.6 µM [rising, single point]. As to `CCOc1ccc(C(=O)NC(=S)NCc2cccnc2)cc1[N+](=O)[O-]`, the AC50 runs as follows: under setting [1], 11.2 µM [rising, partial curve, poor fit]; under setting [2], 11.2 µM [rising, partial curve]. With `CN1CCc2cc3c(c4c2C1CC41CCC(=NO)CC1)OCO3` (stereo not given), under setting [1], the AC50 is 35.5 µM [rising, single point]. `CC(C)c1ccc(NC(=O)C2C3C=CC4(CN(Cc5cccnc5)C(=O)C24)O3)cc1` (stereo not given): the AC50 runs as follows: under setting [1], 0.00316 µM [rising, full curve, poor fit]; under setting [2], 0.0112 µM [rising, full curve, poor fit].

Regarding `Cc1ccc(Nc2nc3nonc3[nH]c2=O)cc1`, under setting [2], the concentration at half-maximal activity (AC50) was 31.6 µM [rising, single point]. For the compound `Cc1ccc(NC(=O)c2oc3ccc(S(=O)(=O)N4CCC5(CC4)OCCO5)cc3c2C)cc1Cl`, the AC50 runs as follows: under setting [1], 0.00631 µM [falling, full curve, poor fit]; under setting [2], 0.00447 µM [falling, full curve, poor fit]. With `O=C(CN1C(=O)CCSc2ccc(S(=O)(=O)N3CCCC3)cc21)Nc1cccc(F)c1`, the AC50 under setting [2] is 14.1 µM [rising, single point]. For `COc1cccc(CNC(=O)CNC(=S)N(Cc2ccccc2)Cc2ccccc2F)c1`, under setting [2], the half-maximal activity concentration (AC50) was 35.5 µM [rising, single point]. Same read-out and setting: as for `CCOC(=O)Oc1ccc2c(=O)c(Oc3cc(C)cc(C)c3)coc2c1`, the figure is 31.6 µM [rising, single point]; as for `COc1ccc2c(c1)[N+](C)(C)C(C)(C)C=C2C`, 3.55 µM [falling, partial curve, poor fit]; as for `CCS(=O)(=O)N1CCC(C(=O)c2ccc(Cl)cc2)CC1`, 22.4 µM [rising, single point]. `COc1ccc(NS(=O)(=O)c2ccc(NC(=O)c3ccccc3Br)cc2)nn1`: the AC50 under setting [1] is 0.02 µM [rising, full curve, poor fit]. On the same count and under the same terms, as for `CN(C)c1ccc(-c2nnc(SCC3CCCO3)n2C)cc1` (stereo not given), the figure is 31.6 µM [falling, single point]. On to `COc1ccc(Cl)cc1N1CCN(CCNC(=O)Nc2ccccc2C)CC1`, for which the AC50 under setting [2] is 35.5 µM [rising, single point].

`N#Cc1cc(-c2ccccc2)nnc1Oc1ccccc1Cl`: the AC50 under setting [1] was 4.47 µM [rising, partial curve] and the concentration at half-maximal activity (AC50) under setting [2] was 6.31 µM [rising, partial curve]. For `COc1ccc(C(=O)NCCc2cc3c(OC)ccc(OC)c3[nH]c2=O)cc1OC`, the AC50 runs as follows: under setting [1], 0.0562 µM [rising, partial curve]; under setting [2], 0.00891 µM [rising, partial curve, poor fit]. In the case of `COc1ccc(Cl)cc1NC(=O)c1cnc2sc(N3CCOCC3)nn2c1=O`, the concentration at half-maximal activity (AC50) runs as follows: under setting [1], 0.447 µM [falling, full curve, poor fit]; under setting [2], 0.501 µM [falling, full curve, poor fit].

The term AC50 denotes the midpoint of the concentration-response curve, whichever way the signal moves.
